Experiment [1] deals with T1, TRIM27 (mouse (endogenous in testis)) (UniProt Q62158).
T1 sequence: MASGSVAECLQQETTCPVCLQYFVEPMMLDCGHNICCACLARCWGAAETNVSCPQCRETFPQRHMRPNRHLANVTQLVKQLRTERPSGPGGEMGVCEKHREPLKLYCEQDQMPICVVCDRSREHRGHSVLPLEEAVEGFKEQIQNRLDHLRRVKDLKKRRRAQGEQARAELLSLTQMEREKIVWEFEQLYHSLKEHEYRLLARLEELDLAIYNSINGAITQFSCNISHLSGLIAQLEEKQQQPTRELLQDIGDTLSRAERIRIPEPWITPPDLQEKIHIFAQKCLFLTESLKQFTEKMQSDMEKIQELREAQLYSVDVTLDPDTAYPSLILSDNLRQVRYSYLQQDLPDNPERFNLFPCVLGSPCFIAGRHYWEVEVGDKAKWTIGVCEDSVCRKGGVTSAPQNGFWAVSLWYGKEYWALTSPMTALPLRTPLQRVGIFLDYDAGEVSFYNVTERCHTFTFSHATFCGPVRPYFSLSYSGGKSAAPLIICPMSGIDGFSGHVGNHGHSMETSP
Briefly: co-IP; whole adult testis lysate in RIPA buffer, sonicated; IP with anti-PFN3 or anti-TRIM27 antibody on Dynabeads M-280 Sheep Anti-Rabbit IgG; eluate on silver-stained SDS-PAGE and immunoblot.

The target in experiment [2] is T2, Profilin 3 (mouse (endogenous in testis)) (UniProt Q9DAD6).
T2 sequence: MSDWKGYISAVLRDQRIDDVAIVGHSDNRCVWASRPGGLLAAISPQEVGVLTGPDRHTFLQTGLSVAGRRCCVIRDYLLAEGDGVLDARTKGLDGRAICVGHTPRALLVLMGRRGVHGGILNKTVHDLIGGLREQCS
The experiment is described as above.

These are yes or no findings as the source states them, for the method shown. Binding seen in cells or lysates may run through a third protein. Some entries that bind do so weakly or less than the wild type.

B1: Profilin 3 (protein, UniProt Q9DAD6 1-137)
chain: T2 sequence
With B1, in experiment [1], the binding entry is given as “binds”.

B2: TRIM27 (protein, UniProt Q62158 1-513)
chain: T1 sequence
In the case of B2, the binding entry in experiment [2] is recorded as “binds”.

Values taken from paper PMC8632698.
